Positions count from the first letter of the chain named. Results are given in words; binding and its absence hold for the method and conditions named. Some binding calls cover weakened binding; strength is not graded here. For some of these results: Sequences can lack the tags named with a protein.

Amino acid sequences for entries named in this document (tags omitted). Residues count along the entry.
UniProt Q38J85, residues 27-239: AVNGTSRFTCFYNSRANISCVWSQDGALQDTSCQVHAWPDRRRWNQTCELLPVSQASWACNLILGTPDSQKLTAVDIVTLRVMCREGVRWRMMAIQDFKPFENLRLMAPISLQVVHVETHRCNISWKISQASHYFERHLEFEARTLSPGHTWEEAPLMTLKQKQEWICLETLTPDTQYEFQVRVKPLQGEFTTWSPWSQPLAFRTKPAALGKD

Results on 2 molecules are retold here after patent publication US20220306753A1 (JN BIOSCIENCES, published 2022).

The target in one assay is T1, human CD122 (human) (UniProt P14784).
T1 sequence: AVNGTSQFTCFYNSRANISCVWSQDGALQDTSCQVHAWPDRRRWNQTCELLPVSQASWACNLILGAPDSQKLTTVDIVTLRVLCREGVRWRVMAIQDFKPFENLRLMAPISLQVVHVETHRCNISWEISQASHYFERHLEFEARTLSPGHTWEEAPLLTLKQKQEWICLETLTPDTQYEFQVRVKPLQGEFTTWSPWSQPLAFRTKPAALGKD
Briefly: assay not described.

Assay [1] has as its target T2, cynomolgus CD122 (cynomolgus) (UniProt Q38J85).
T2 sequence (looked up): T1 sequence with Q7R, A66T, T74A, L83M, V92M, E127K, L158M
Put plainly: assay not described.

In assay [2] the target is T3, CD122-FLAG-GPI (human).
T3 sequence: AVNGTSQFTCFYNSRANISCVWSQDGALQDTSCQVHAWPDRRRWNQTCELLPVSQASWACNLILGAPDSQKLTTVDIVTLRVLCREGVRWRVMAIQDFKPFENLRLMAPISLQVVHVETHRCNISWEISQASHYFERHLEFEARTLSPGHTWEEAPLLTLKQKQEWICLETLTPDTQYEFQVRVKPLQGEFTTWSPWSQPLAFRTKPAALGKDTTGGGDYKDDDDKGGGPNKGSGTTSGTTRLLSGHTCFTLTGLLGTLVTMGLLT
Briefly: flow cytometry on NS0/CD122 cells.

Assay [3] deals with T3, CD122-FLAG-GPI (human). Briefly: flow cytometry on NS0/CD122 cells, 2.5 µg/ml and 4-fold dilutions, PE anti-human IgG.

B1: HuABC77D (antibody, human IgG1, kappa, L234A L235A, V domains shown)
VH: EVQLVESGGGLVQPGGSLRLSCAASGFDFSRYWMSWVRQAPGKGLEWIGEINPDSSTINYAPSLKDRFTISRDNAKNSLYLQMNSLRAEDTAVYYCARHDYDEGIYFDYWGQGTTVTVSS
VL: DIQMTQSPSSLSASVGDRVTITCSASSRVIYMHWYQQKPGKAPKRWIYDTSKLASGVPSRFSGSGSGTEFTLTISSLQPEDFATYYCQQWSSNPPTFGGGTKVEIKR
As for B1, the binding result (in the assay with human CD122 (human); in assay [1]; in the assay with CD122-FLAG-GPI (human) [2]) was “binds” in each case.

B2: HuABC2 (antibody, human IgG1, kappa, V domains shown)
VH: EVQLVESGGGLVQPGGSLRLSCAASGFTFSDFYMEWVRQAPGKGLEWIAASRNKANDYTTEYSASVKGRFIVSRDDSKNSLYLQMNSLKTEDTAVYYCARSYYRYDGMDYWGQGTTVTVSS
VL: EIVLTQSPATLSLSPGERATLSCSAISSVSYMYWYQQKPGQAPRLLIYDTSNLVSGVPARFSGSGSGTDYTLTISSLEPEDFAVYYCQQWNTYPYTFGGGTKVEIKR
notes: Human IgG1/kappa, wild-type Fc, expressed from pHuABC2p in CHO-K1 and purified on protein A; also called humanized anti-CD122 IgG1/kappa monoclonal antibody
As for B2, the binding entry with CD122-FLAG-GPI (human) [3] is recorded as “binds”.
